pIC50: −log10 of the molar value. For at least one compound, name, drawing or mass did not settle the structure.
Legend:
Pancreatic cell lines = details: (+cisplatin); J. Exp. & Clin. Res. (2008); read-out: IC50 (Concentration, literature); cited from earlier work
[1] = system: panel of tumour cell lines; assay: ATP cytotoxicity assay on the panel of tumour cell lines (CXR1002 alone; test items alone vs combined with CXR1002); details: 48 hours

## O=c1cc(N2CCOCC2)oc2c(-c3ccccc3)cccc12 [LY294002, reference compound]
Pancreatic cell lines
  pIC50: 4.30

## CO[C@H]1C[C@@H]2CC[C@@H](C)[C@@](O)(O2)C(=O)C(=O)N2CCCC[C@H]2C(=O)O[C@H]([C@H](C)C[C@@H]2CC[C@@H](O)[C@H](OC)C2)CC(=O)[C@H](C)/C=C(\C)[C@@H](O)[C@@H](OC)C(=O)[C@H](C)C[C@H](C)/C=C/C=C/C=C/1C [Rapamycin]
[1]; the four ovarian lines tested and HepG2 cells
  sensitivity to combination with CXR1002 vs test item alone: increased sensitivity

## COC1=C2C[C@@H](C)C[C@H](OC)[C@H](O)[C@@H](C)/C=C(\C)[C@H](OC(N)=O)[C@@H](OC)/C=C\C=C(/C)C(=O)NC(=CC1=O)C2=O [geldanamycin, Geldanamycin]
[1]; a number of the cell lines, single dose of CXR1002
  sensitivity to combination with CXR1002 vs test item alone: increase the sensitivity

From US20130029928A1 (priority 2010, published 2013)
